# In US10668040B2, “Treatment of urea cycle disorders in neonates and infants” (Horizon Therapeutics, LLC, priority 2017, dated 2020):
# No dose or concentration is given here for some results.
# System: UCD patients
# Test: Example 3: amino acids baseline and change from baseline up to Month 24
# Type: in vivo, human
# [1] = Age 2 months to <2 years, Day 7
# [2] = Age 2 months to <2 years, Month 2
# [3] = Age 2 months to <2 years, Month 3
# [4] = Age 2 months to <2 years, Month 4
# [5] = Age 2 months to <2 years, Month 5
# [6] = Age 2 months to <2 years, Month 6
# [7] = Age 2 months to <2 years, Month 9
# [8] = Age 2 months to <2 years, Month 12
# [9] = Age 2 months to <2 years, Month 15
# [10] = Age 2 months to <2 years, Month 24
structure (smiles),measurement,setting,value
"O=C(CCCc1ccccc1)OCC(COC(=O)CCCc1ccccc1)OC(=O)CCCc1ccccc1 [RAVICTI, benzenebutanoic acid, 1′,1″-(1,2,3-propanetriyl) ester]",Glutamate change from baseline,"Age 0 to <2 months, Month 12",8.75 (±97.329); μmol/L
same,Glutamine change from baseline,"Age 0 to <2 months, Month 12",−181.50 (±118.604); μmol/L
same,Isoleucine change from baseline,"Age 0 to <2 months, Month 12",−178.50 (±335.538); μmol/L
same,Leucine change from baseline,"Age 0 to <2 months, Month 12",−249.50 (±483.776); μmol/L
same,Sum of glutamine and glutamate change from baseline,"Age 0 to <2 months, Month 12",−172.75 (±210.202); μmol/L
same,Valine change from baseline,"Age 0 to <2 months, Month 12",−238.25 (±506.435); μmol/L
same,Glutamate change from baseline,"Age 0 to <2 months, Month 15",25.75 (±62.660); μmol/L
same,Glutamine change from baseline,"Age 0 to <2 months, Month 15",−103.75 (±328.583); μmol/L
same,Isoleucine change from baseline,"Age 0 to <2 months, Month 15",−139.50 (±359.287); μmol/L
same,Leucine change from baseline,"Age 0 to <2 months, Month 15",−195.75 (±496.313); μmol/L
same,Sum of glutamine and glutamate change from baseline,"Age 0 to <2 months, Month 15",−78.00 (±297.410); μmol/L
same,Valine change from baseline,"Age 0 to <2 months, Month 15",−137.00 (±519.042); μmol/L
same,Glutamate change from baseline,"Age 0 to <2 months, Month 18",2.50 (±21.920); μmol/L
same,Glutamine change from baseline,"Age 0 to <2 months, Month 18",−184.00 (±80.610); μmol/L
same,Isoleucine change from baseline,"Age 0 to <2 months, Month 18",1.00 (±45.255); μmol/L
same,Leucine change from baseline,"Age 0 to <2 months, Month 18",6.00 (±62.225); μmol/L
same,Sum of glutamine and glutamate change from baseline,"Age 0 to <2 months, Month 18",−181.50 (±102.530); μmol/L
same,Valine change from baseline,"Age 0 to <2 months, Month 18",38.00 (±67.882); μmol/L
same,Glutamate change from baseline,"Age 0 to <2 months, Month 24",16.10 (±95.461); μmol/L
same,Glutamine change from baseline,"Age 0 to <2 months, Month 24",−219.93 (±279.815); μmol/L
same,Isoleucine change from baseline,"Age 0 to <2 months, Month 24",−55.31 (±217.209); μmol/L
same,Leucine change from baseline,"Age 0 to <2 months, Month 24",−82.54 (±228.107). μmol/L
same,Sum of glutamine and glutamate change from baseline,"Age 0 to <2 months, Month 24",−203.83 (±255.810); μmol/L
same,Valine change from baseline,"Age 0 to <2 months, Month 24",−72.78 (±258.710); μmol/L
same,Glutamate change from baseline,[1],−54.50 (±92.626); μmol/L
same,Glutamine change from baseline,[1],−184.33 (±168.657); μmol/L
same,Isoleucine change from baseline,[1],2.67 (±19.159); μmol/L
same,Leucine change from baseline,[1],−0.83 (±32.762); μmol/L
same,Sum of glutamine and glutamate change from baseline,[1],−238.83 (±203.567); μmol/L
same,Valine change from baseline,[1],4.00 (±24.133); μmol/L
same,Glutamate change from baseline,[2],7.80 (±25.646); μmol/L
same,Glutamine change from baseline,[2],−174.60 (±318.249); μmol/L
same,Isoleucine change from baseline,[2],4.20 (±45.861); μmol/L
same,Leucine change from baseline,[2],9.80 (±65.975); μmol/L
same,Sum of glutamine and glutamate change from baseline,[2],−166.80 (±332.421); μmol/L
same,Valine change from baseline,[2],40.60 (±90.057); μmol/L
same,Glutamate change from baseline,[3],−16.33 (±39.209); μmol/L
same,Glutamine change from baseline,[3],−374.00 (±425.903); μmol/L
same,Isoleucine change from baseline,[3],−25.67 (±16.743); μmol/L
same,Leucine change from baseline,[3],−33.00 (±25.239); μmol/L
same,Sum of glutamine and glutamate change from baseline,[3],−390.33 (±462.292); μmol/L
same,Valine change from baseline,[3],−27.33 (±37.018); μmol/L
same,Glutamate change from baseline,[4],−13.00 (±39.590); μmol/L
same,Glutamine change from baseline,[4],−252.75 (±323.852); μmol/L
same,Isoleucine change from baseline,[4],−20.25 (±20.353); μmol/L
same,Leucine change from baseline,[4],−31.25 (±24.771); μmol/L
same,Sum of glutamine and glutamate change from baseline,[4],−265.75 (±339.015); μmol/L
same,Valine change from baseline,[4],−31.50 (±29.760); μmol/L
same,Glutamate change from baseline,[5],0.25 (±13.426); μmol/L
same,Glutamine change from baseline,[5],−370.25 (±377.222); μmol/L
same,Isoleucine change from baseline,[5],−20.00 (±36.341); μmol/L
same,Leucine change from baseline,[5],−39.50 (±61.136); μmol/L
same,Sum of glutamine and glutamate change from baseline,[5],−370.00 (±379.884); μmol/L
same,Valine change from baseline,[5],−56.00 (±75.939); μmol/L
same,Glutamate change from baseline,[6],−2.20 (±34.463); μmol/L
same,Glutamine change from baseline,[6],−113.20 (±519.710); μmol/L
same,Isoleucine change from baseline,[6],−16.40 (±12.137); μmol/L
same,Leucine change from baseline,[6],−25.40 (±13.594); μmol/L
same,Sum of glutamine and glutamate change from baseline,[6],−115.40 (±546.796); μmol/L
same,Valine change from baseline,[6],−21.60 (±18.202); μmol/L
same,Glutamate change from baseline,[7],30.80 (±17.092); μmol/L
same,Glutamine change from baseline,[7],−446.53 (±360.457); μmol/L
same,Isoleucine change from baseline,[7],−6.73 (±13.342); μmol/L
same,Leucine change from baseline,[7],−19.13 (±39.322); μmol/L
same,Sum of glutamine and glutamate change from baseline,[7],−415.73 (±365.419); μmol/L
same,Valine change from baseline,[7],−11.90 (±71.753); μmol/L
same,Glutamate change from baseline,[8],22.20 (±23.506); μmol/L
same,Glutamine change from baseline,[8],−450.50 (±386.699); μmol/L
same,Isoleucine change from baseline,[8],−13.33 (±15.885); μmol/L
same,Leucine change from baseline,[8],−34.37 (±23.283); μmol/L
same,Sum of glutamine and glutamate change from baseline,[8],−428.30 (±404.351); μmol/L
same,Valine change from baseline,[8],−48.87 (±51.644); μmol/L
same,Glutamate change from baseline,[9],39.00 (±00000); μmol/L
same,Glutamine change from baseline,[9],−149.00 (±00000); μmol/L
same,Isoleucine change from baseline,[9],−18.00 (±00000); μmol/L
same,Leucine change from baseline,[9],−40.00 (±00000); μmol/L
same,Sum of glutamine and glutamate change from baseline,[9],−110.00 (±00000); μmol/L
same,Valine change from baseline,[9],−46.00 (±0000); μmol/L
same,Glutamate change from baseline,[10],48.00 (±53.740); μmol/L
same,Glutamine change from baseline,[10],195.00 (±554.372); μmol/L
same,Isoleucine change from baseline,[10],1.50 (±10.607); μmol/L
same,Leucine change from baseline,[10],−1.50 (±31.820); μmol/L
same,Sum of glutamine and glutamate change from baseline,[10],243.00 (±608.112); μmol/L
same,Valine change from baseline,[10],5.00 (±55.154); μmol/L
